Residue numbers refer to the chain shown, from its start. Results are given in words; binding and its absence hold for the method and conditions named. Some entries that bind do so weakly or less than the wild type.

The chains behind the UniProt entries cited, without tags or fusion partners. Where a name states a change or a piece, a line headed by the entry shows the natural chain unless it says otherwise. Residues count along the entry.
UniProt P16471: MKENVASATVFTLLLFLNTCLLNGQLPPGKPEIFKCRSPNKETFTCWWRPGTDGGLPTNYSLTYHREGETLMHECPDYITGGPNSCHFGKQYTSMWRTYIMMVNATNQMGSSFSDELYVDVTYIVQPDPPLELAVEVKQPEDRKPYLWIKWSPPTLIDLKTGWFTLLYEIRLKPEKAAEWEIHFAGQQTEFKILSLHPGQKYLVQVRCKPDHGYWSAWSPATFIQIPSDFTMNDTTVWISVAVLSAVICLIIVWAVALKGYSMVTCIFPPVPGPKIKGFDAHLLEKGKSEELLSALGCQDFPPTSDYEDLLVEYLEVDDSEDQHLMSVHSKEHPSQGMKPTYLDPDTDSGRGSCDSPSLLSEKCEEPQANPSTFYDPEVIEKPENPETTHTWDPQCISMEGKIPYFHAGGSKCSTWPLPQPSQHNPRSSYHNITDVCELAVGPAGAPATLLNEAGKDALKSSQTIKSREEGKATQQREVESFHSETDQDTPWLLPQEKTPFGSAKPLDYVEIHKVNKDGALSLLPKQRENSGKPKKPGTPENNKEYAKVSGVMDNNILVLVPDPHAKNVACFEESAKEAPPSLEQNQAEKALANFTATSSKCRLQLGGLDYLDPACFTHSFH
UniProt Q08501, residues 20-229: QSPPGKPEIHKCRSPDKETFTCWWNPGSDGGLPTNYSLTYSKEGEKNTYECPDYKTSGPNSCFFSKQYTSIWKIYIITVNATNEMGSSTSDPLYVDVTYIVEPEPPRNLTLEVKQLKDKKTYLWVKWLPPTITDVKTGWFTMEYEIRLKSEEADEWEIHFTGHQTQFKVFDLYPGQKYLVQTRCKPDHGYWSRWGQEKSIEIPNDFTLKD

First the molecules themselves.
B1: Ab39 (antibody, human IgG1, kappa, V domains shown)
VH: EVQLVQSGAEVKKPGSSVKVSCKASGYTFTSYWIHWVRQAPGQGLEWIGEIDPSDSYTNYNQKFKGRATLTVDKSSSTAYMELSSLRSEDTAVYYCARSFFTNWFAYWGQGTLVTVSS
VL: DVVMTQTPLSLSVTPGQPASISCRSSQSLVHSNGNTYLHWYLQKPGQSPQLLIYKVSNRFSGVPDRFSGSGSGTDFTLKISRVEAEDVGVYFCSQSTHVPFTFGGGTKVEIKR
B2: Ab54 (antibody, human IgG1, kappa, V domains shown)
VH: B1 VH with A97G
VL: B1 VL
B3: Ab55 (antibody, human IgG1, kappa, V domains shown)
VH: B1 VH with K74R, A97G
VL: B1 VL
B4: Ab36 (antibody, human IgG1, kappa, V domains shown)
VH: B1 VH with I48M, A68V, L70I, V72A, S76T
VL: B1 VL
B5: Ab53 (antibody, human IgG1, kappa, V domains shown)
VH: B1 VH with A68V, L70I, S76T
VL: B1 VL
B6: Ab30 (antibody, human IgG1, kappa, V domains shown)
VH: B1 VH with Y32F, I34M, E50V, S56T, K74E, S99G, F100D, F101Y, T102S, A106T
VL: B1 VL with S28R, F101W

The target in the first experiment is cyno PRLR (Biacore antigen) (cyno). The experiment in a line: SPR (Biacore T200), mAb captured by anti-Fc, PRLR injected; ka against kd plot. (Surface plasmon resonance follows binding to a sensor surface in real time, without labels.)
As to B1, the binding entry was “binds”.

For B2, the binding entry was “binds”.

B3: the binding result is reported as “binds”.

B4: the binding entry is reported as “binds”.

With B5, the binding entry was “binds”.

Another experiment concerns the target human PRLR (Biacore antigen) (human) (UniProt P16471). Described as above.
B1: the binding result was “binds”.

On to B2, for which the binding result is “binds”.

As for B3, the binding result is on record as “binds”.

For B4, the binding result is “binds”.

With B5, the binding result is reported as “binds”.

Another experiment has as its target murine PRLR (Biacore antigen) (murine) (UniProt Q08501). Described as above.
With B2, the binding entry is reported as “binds”.

For the molecule B3, the binding entry is recorded as “binds”.

In another experiment the target is human PRLR (Biacore antigen) (human) (UniProt P16471). The experiment in a line: SPR (Biacore); huPRLR binding kinetics, ka against kd plot.
Regarding B1, the binding result is on record as “binds”.

Take B2: the binding result is given as “binds”.

In the case of B3, the binding result is listed as “binds”.

Consider B4, for which the binding entry is recorded as “binds”.

Consider B6, for which the binding result is recorded as “binds”.

As for B5, the binding result was “binds”.

The target is the same in a further experiment. The experiment in a line: SPR Biacore.
As for B5, the binding entry is “binds”.

For the origin of these results see patent US20170022281A1.
